25 compounds from PubChem BioAssay AID330 (DTP/NCI, 2004) can be followed below.

The subject of the assay is P388 leukemia ip, CD2F1 mice, survival T/C. The assay is described as follows: NCI In Vivo Anticancer Drug Screen. Data for tumor model P388 Leukemia (intraperitoneal) in CD2F1 (CDF1) mice. The conditions noted are these: T/C endpoint: median survival time, higher T/C = longer survival.
The mark [1] stands for this setting: dose: 200.0 mg/kg/injection, schedule: Q01DX009 (ip), vehicle: saline with Tween-80.
Where [2] appears, read: dose: 50.0 mg/kg/injection, schedule: Q01DX005 (ip), vehicle: saline with Tween-80.
The mark [3] stands for this setting: dose: 100.0 mg/kg/injection, schedule: Q01DX005 (ip), vehicle: saline with Tween-80.
The mark [4] stands for this setting: dose: 200.0 mg/kg/injection, schedule: Q01DX005 (ip), vehicle: saline with Tween-80.
Setting [5] is: dose: 100.0 mg/kg/injection, schedule: Q04DX003 (ip), vehicle: saline with Tween-80.
Where [6] appears, read: dose: 400.0 mg/kg/injection, schedule: Q04DX003 (ip), vehicle: saline with Tween-80.
Setting [7] is: dose: 50.0 mg/kg/injection, schedule: Q01DX009 (ip), vehicle: saline with Tween-80.
Where [8] appears, read: dose: 25.0 mg/kg/injection, schedule: Q01DX009 (ip), vehicle: saline.
Setting [9] is: dose: 50.0 mg/kg/injection, schedule: Q01DX009 (ip), vehicle: saline.
Setting [10] is: dose: 100.0 mg/kg/injection, schedule: Q01DX009 (ip), vehicle: saline.
The mark [11] stands for this setting: dose: 200.0 mg/kg/injection, schedule: Q01DX005 (ip), vehicle: Klucel (hydroxypropylcellulose) (HPC).
[12] abbreviates: dose: 100.0 mg/kg/injection, schedule: Q01DX009 (ip), vehicle: Klucel (hydroxypropylcellulose) (HPC).
[13] abbreviates: dose: 240.0 mg/kg/injection, schedule: Q01DX005 (ip), vehicle: saline with Tween-80.
The mark [14] stands for this setting: dose: 400.0 mg/kg/injection, schedule: Q04DX002 (ip), vehicle: saline with Tween-80.

The list is a part of this screen's results and no random one: it gathers tests that were run many times, whatever their T/C, doses with no T/C, and many T/C values between a quarter and a half above the control. Other doses and runs of a compound stand elsewhere. T/C is the treated group as % of the vehicle group. Some doses have a count of surviving animals in place of a T/C: the source holds a T/C of zero for them, seemingly a mark for toxic or unscored doses. Some doses without a T/C left all or most animals alive at the check, yet need not have been tolerated: the source hardly ever lists a survival T/C far under the control, and the zero likely stands for such cases as well. Counts of survivors are from the toxicity check (mostly the fifth day) where no day follows; animals may have died later. Schedules are NCI's codes, taken here to give the interval after Q, in days (D) or hours (H), and the number of doses after X. Some molecules as drawn cover several salts, stereoisomers or complexes of the source; a dose is that of the sample tested. Some doses were run more than once; their values stand side by side, smallest first. Where survival is the endpoint, the PubChem record calls one and a half times the control and up active, and a quarter to a half above the control has no call in these data; cut-offs in other NCI protocols can differ. Some schedules carry Z or #; the key to these is not given. Some T/C values are followed by the survivors on the day toxicity was checked, most often the fifth; without a count, all were alive then.

Consider `Cc1c(-c2ccccc2)ccnc1/C=N/NC(=S)NCc1cccnc1`, for which the survivor count under setting [1] was 0 of 6.

For the compound `COc1cc(NCCCCCNC(C)C)c2ncccc2c1`, the survivor count reads like this: under setting [2], 1 of 5; under setting [3], 0 of 5; under setting [4], 0 of 5.

`Cc1ccc(N)c(C(O)(C(F)(F)F)C(F)(F)F)c1`: the survivor count runs as follows: (dose: 100.0 mg/kg/injection, schedule: Q04DX003 (ip), vehicle: Klucel (hydroxypropylcellulose) (HPC)) 0 of 6; under setting [1], 6 of 6; (dose: 200.0 mg/kg/injection, schedule: Q04DX003 (ip), vehicle: Klucel (hydroxypropylcellulose) (HPC)) 0 of 6; (dose: 400.0 mg/kg/injection, schedule: Q04DX003 (ip), vehicle: Klucel (hydroxypropylcellulose) (HPC)) 0 of 6.

For `Cc1ccc(-c2nc3ncnc(N)c3[nH]2)cc1`, the survivor count is, setting by setting: (dose: 50.0 mg/kg/injection, schedule: Q04DX003 (ip), vehicle: saline with Tween-80) 3 of 6; under setting [5], 3 of 6; (dose: 200.0 mg/kg/injection, schedule: Q04DX003 (ip), vehicle: saline with Tween-80) 1 of 6; under setting [6], 0 of 6.

Turning to `CC1CN1P(=O)(N1CC2CCC(CC2)C1)N1CC1C` (centres undefined), the T/C is, setting by setting: (dose: 33.0 mg/kg/injection, schedule: Q01DX009 (ip), vehicle: saline with Tween-80) 129 % of control; under setting [7], 141 % of control; (dose: 75.0 mg/kg/injection, schedule: Q01DX009 (ip), vehicle: saline with Tween-80) 133 % of control. Also, the survivor count under setting [6] is recorded as 4 of 6.

In the case of `CCOC(=O)c1ccc2cc(C)c3ccc(N)nc3n2c1=O`, the survivor count under setting [2] was 5 of 5.

On to `Nc1ccc2[nH]c(=S)[nH]c2c1`, for which the survivor count is 4 of 6 under setting [7] and 4 of 6 under setting [1].

Turning to `O=P(Oc1ccc(OP(=O)(N2CC2)N2CC2)cc1)(N1CC1)N1CC1`, the T/C under setting [5] is 129 % of control. Besides, the survivor count is, setting by setting: (dose: 400.0 mg/kg/injection, schedule: Q01DX009 (ip), vehicle: saline with Tween-80) 6 of 6; under setting [6], 6 of 6; (dose: 600.0 mg/kg/injection, schedule: Q04DX003 (ip), vehicle: saline with Tween-80) 3 of 6.

As for `O=C1c2ccccc2-c2c1c1ccccc1c(=O)n2Cc1ccccc1`, the survivor count is reported as 5 of 5 under setting [2], 5 of 5 under setting [3] and 5 of 5 under setting [4].

With `[Cl][Ni][Cl]`, the survivor count is listed as 5 of 6 under setting [8]; 0 of 6 under setting [9]; 0 of 6 under setting [10]; 0 of 6 (dose: 200.0 mg/kg/injection, schedule: Q01DX009 (ip), vehicle: saline).

Regarding `OC(c1ccccc1I1OC(C(F)(F)F)(C(F)(F)F)c2ccccc21)(C(F)(F)F)C(F)(F)F` (tested in a mixture with another compound), the survivor count reads like this: (dose: 12.5 mg/kg/injection, schedule: Q01DX005 (ip), vehicle: Klucel (hydroxypropylcellulose) (HPC)) 1 of 6; (dose: 25.0 mg/kg/injection, schedule: Q01DX005 (ip), vehicle: Klucel (hydroxypropylcellulose) (HPC)) 0 of 6; (dose: 50.0 mg/kg/injection, schedule: Q01DX005 (ip), vehicle: Klucel (hydroxypropylcellulose) (HPC)) 0 of 6; (dose: 100.0 mg/kg/injection, schedule: Q01DX005 (ip), vehicle: Klucel (hydroxypropylcellulose) (HPC)) 0 of 6; under setting [11], 0 of 6.

Consider `CC1=CC(=Nc2ccc(N(CCCl)CCCl)cc2)C=C(C)C1=O`, for which the T/C was 128 % of control (dose: 3.13 mg/kg/injection, schedule: Q01DX009 (ip), vehicle: Klucel (hydroxypropylcellulose) (HPC)); 139 % of control (dose: 12.5 mg/kg/injection, schedule: Q01DX009 (ip), vehicle: Klucel (hydroxypropylcellulose) (HPC)); 137 % of control under setting [8]; 133 % of control [5 of 6 alive] under setting [9]; 130 % of control under setting [12]; 149 % of control under setting [10]. Also, the survivor count (dose: 100.0 mg/kg/injection, schedule: Q01DX009 (ip), vehicle: other) is 6 of 6.

With `COc1cccc2c(NCCCCCCNc3c4ccccc4nc4c(OC)cccc34)c3ccccc3nc12`, the T/C runs as follows: (dose: 1.25 mg/kg/injection, schedule: Q## X009 (ip), vehicle: lactic acid) 144 % of control; (dose: 2.5 mg/kg/injection, schedule: Q01DX009 (ip), vehicle: other) 144 % of control; (dose: 3.75 mg/kg/injection, schedule: Q01DX009 (ip), vehicle: other) 144 % of control; (dose: 5.0 mg/kg/injection, schedule: Q01DX009 (ip), vehicle: other) 144 % of control; (dose: 7.5 mg/kg/injection, schedule: Q01DX009 (ip), vehicle: other) 140 % of control; (dose: 10.0 mg/kg/injection, schedule: Q01DX009 (ip), vehicle: other) 137 % of control. The survivor count by setting is: (dose: 15.0 mg/kg/injection, schedule: Q01DX009 (ip), vehicle: other) 3 of 6; (dose: 20.0 mg/kg/injection, schedule: Q01DX009 (ip), vehicle: other) 1 of 6.

As for `NOCc1cccc(Cl)c1`, under setting [7], the survivor count was 6 of 6.

For the compound `Fc1ccc(CSC(=S)Nc2ccc(F)c(F)c2)cc1`, the T/C is 129 % of control under setting [12] and 131 % of control (dose: 200.0 mg/kg/injection, schedule: Q01DX009 (ip), vehicle: Klucel (hydroxypropylcellulose) (HPC)).

Take `CCOC(=O)C1Sc2c(c(=O)n(C)c3ccccc23)C1=O` (centres undefined): the survivor count (dose: 400.0 mg/kg/injection, schedule: Q01DX005 (ip), vehicle: Klucel (hydroxypropylcellulose) (HPC)) is 2 of 6 and 3 of 6.

Consider `Cc1cnc2c(N)nn(-c3ccccc3)c2n1`, for which the survivor count under setting [6] was 3 of 6.

Turning to `CC(C)c1cccc(C(C)C)c1NC(=O)OCCN(C)C`, the survivor count under setting [13] is 0 of 6.

On to `Nc1cc2c(c[n+](CCCCCCCCCC[n+]3cc4c5ccccc5c(N)cc4c4ccccc43)c3ccccc23)c2ccccc12`, for which the T/C (dose: 1.56 mg/kg/injection, schedule: Q04DX003 (ip), vehicle: other) was 127 % of control; the T/C (dose: 3.13 mg/kg/injection, schedule: Q04DX003 (ip), vehicle: other) is 127 and 137 % of control; the T/C (dose: 6.25 mg/kg/injection, schedule: Q04DX003 (ip), vehicle: other) is 137 and 148 % of control; the T/C (dose: 12.5 mg/kg/injection, schedule: Q04DX003 (ip), vehicle: other) is 145 and 147 % of control; the T/C (dose: 100.0 mg/kg/injection, schedule: Q04DX003 (ip), vehicle: other) was 148 % of control.

On to `CC(C)N1C(=O)C2C3C=CC(C3)C2C1=O` (centres undefined), for which the survivor count (dose: 100.0 mg/kg/injection, schedule: Q04DX002 (ip), vehicle: saline with Tween-80) is recorded as 0 of 6.

For the compound `C1OCN2CSCC12` (centres undefined), the T/C was 126 % of control (dose: 200.0 mg/kg/injection, schedule: Q04DX002 (ip), vehicle: saline with Tween-80) and 126 % of control under setting [14].

As to `CCc1ccccc1NC1=C(Cl)C(=O)c2ccccc2C1=O`, the survivor count under setting [13] was 0 of 6.

In the case of `O=C(NCN1CCOCC1)c1ccccc1O`, the survivor count under setting [14] was 5 of 5.

On to `CC1=Nc2nc(=NCCCN(C)C)nc3cccc(n23)N1`, for which the survivor count (dose: 120.0 mg/kg/injection, schedule: Q01DX005 (ip), vehicle: saline with Tween-80) was 3 of 6 and the survivor count under setting [13] is given as 0 of 6.

Turning to `CN(c1ccccc1)C(C#N)CC(C)(C)C` (centres undefined), the survivor count under setting [11] is on record as 3 of 6.
